PubChem BioAssay AID493246 – Drosophila RNAi Screening Center | 2011
The screen tested about 21,000 reagents; shown is an unselected part of those with a known target gene and a result. In the full data, 429 (2%) were called active. 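Values are raw and not normalised between plates; calls rest on per-plate z-scores that were not deposited.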 A number with no mark means an inactive call. The record does not give: the amount of reagent, the time to read-out.

Screen: 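Identify essential fly genes by loss of cell viability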 (primary screen)
Cell system: Drosophila Kc and S2R+ cells
Reagent: long dsRNA against Drosophila genes
Read-out: 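Raw, unnormalised count of remaining cells in each well; per-plate z-scores of cell number underlie the calls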
Reading the numbers: Kc cell number and S2R+ cell number: higher = more cells remaining
Active means: 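Active when the per-plate z-score of cell number is 3 or more in the direction of fewer cells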

CG4250 [DRSC04455]
- Kc cell number, rep 1: 1.64e6
- Kc cell number, rep 2: 1.73e6
- S2R+ cell number, rep 1: 1.30e6
- S2R+ cell number, rep 2: 1.37e6

cpx [DRSC11999]
- Kc cell number, rep 1: 1.52e6
- Kc cell number, rep 2: 1.59e6
- S2R+ cell number, rep 1: 1.13e6
- S2R+ cell number, rep 2: 1.31e6

Atac2 [DRSC02053]
- Kc cell number, rep 1: 1.34e6
- Kc cell number, rep 2: 1.43e6
- S2R+ cell number, rep 1: 1.02e6
- S2R+ cell number, rep 2: 1.13e6

Cyp49a1 [DRSC06737]
- Kc cell number, rep 1: 1.62e6
- Kc cell number, rep 2: 1.73e6
- S2R+ cell number, rep 1: 1.33e6
- S2R+ cell number, rep 2: 1.46e6

Cyp49a1 [DRSC07367]
- Kc cell number, rep 1: 1.55e6
- Kc cell number, rep 2: 1.57e6
- S2R+ cell number, rep 1: 1.29e6
- S2R+ cell number, rep 2: 1.35e6

CG13705 [DRSC08314]
- Kc cell number, rep 1: 1.59e6
- Kc cell number, rep 2: 1.64e6
- S2R+ cell number, rep 1: 1.26e6
- S2R+ cell number, rep 2: 1.17e6

Next part; the last 2 above are carried over.
Cyp49a1 [DRSC07367]
- Kc cell number, rep 1: 1.55e6
- Kc cell number, rep 2: 1.57e6
- S2R+ cell number, rep 1: 1.29e6
- S2R+ cell number, rep 2: 1.35e6

CG13705 [DRSC08314]
- Kc cell number, rep 1: 1.59e6
- Kc cell number, rep 2: 1.64e6
- S2R+ cell number, rep 1: 1.26e6
- S2R+ cell number, rep 2: 1.17e6

CG11771 [DRSC14379]
- Kc cell number, rep 1: 1.54e6
- Kc cell number, rep 2: 1.57e6
- S2R+ cell number, rep 1: 1.28e6
- S2R+ cell number, rep 2: 1.37e6

CG6833 [DRSC10721]
- Kc cell number, rep 1: 1.51e6
- Kc cell number, rep 2: 1.56e6
- S2R+ cell number, rep 1: 1.18e6
- S2R+ cell number, rep 2: 1.26e6

RpS10b [DRSC19561]
- Kc cell number, rep 1: 1.23e6
- Kc cell number, rep 2: 1.23e6
- S2R+ cell number, rep 1: 8.65e5
- S2R+ cell number, rep 2: 9.74e5

ste24b [DRSC07315]
- Kc cell number, rep 1: 1.50e6
- Kc cell number, rep 2: 1.57e6
- S2R+ cell number, rep 1: 1.22e6
- S2R+ cell number, rep 2: 1.35e6

CG31287 [DRSC13138]
- Kc cell number, rep 1: 1.45e6
- Kc cell number, rep 2: 1.46e6
- S2R+ cell number, rep 1: 1.01e6
- S2R+ cell number, rep 2: 1.12e6

CG32655 [DRSC18925]
- Kc cell number, rep 1: 1.27e6
- Kc cell number, rep 2: 1.43e6
- S2R+ cell number, rep 1: 1.02e6
- S2R+ cell number, rep 2: 1.09e6
